From the supplement of paper PMC8866396 come the findings set out here.

Molecules are shown by their SMILES. Where a name gives a salt, the structure may show the parent alone. ± gives the standard deviation of the averaged measurements. This is one part of the list. Repeats in this data set agree poorly, so a single value says little.

Experiment [1] deals with IL-6-GFP PC-9GR. The experiment in a line: IL-6-GFP fluorescence relative to DMSO control (fraction of control); higher = more IL-6-GFP expression. The conditions noted are these: compound concentration: 10 uM; treatment time: 48 h. How it is done:
(§1)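 IL-6-GFP-overexpressing PC-9 and PC-9GR EGFR-mutant lung cancer cells (3000 cells/well, 96-well) were treated for 48 h with each compound of the Selleck L2000 library at 10 uM. IL-6-GFP fluorescence was read on a high-content screening system, and viability by CCK-8 absorbance on a parallel plate set. Each value was normalised as compound well / DMSO control well; two independent replicates.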

The subject of experiment [2] is IL-6-GFP PC-9. The description is as above. The following applies: compound concentration: 10 uM; treatment time: 48 h. As for the experimental part: as §1

In the case of `O=C(/C=C/C=C/c1ccc2c(c1)OCO2)N1CCCCC1` [Piperine], the IL-6-GFP fluorescence in experiment [1] was determined as 0.902 ± 0.29; in experiment [2], 1.89 ± 0.8.
In the case of `CN1CCC(=C2c3ccccc3CCc3sccc32)CC1.O=C(O)CC(O)C(=O)O` [Pizotifen Malate], the IL-6-GFP fluorescence turned out to be 0.953 ± 0.11 in experiment [1] and 1.1 ± 0.44 in experiment [2].
Turning to `Cc1nc(Nc2ccc(F)cc2)nc(N2CCc3ccccc3C2C)c1C.Cl` (stereo not drawn) [Revaprazan Hydrochloride], the figures for the IL-6-GFP fluorescence in experiment [1] and in experiment [2] were 1.01 ± 0.063 and 0.976 ± 0.021, respectively.
On to `C#Cc1cccc(Nc2ncnc3cc4c(cc23)OCCOCCOCCO4)c1` [Icotinib], for which the figures for the IL-6-GFP fluorescence in experiment [1] and in experiment [2] were 1.17 ± 0.48 and 0.844 ± 0.17, respectively.
For the molecule `Cc1ccc(-c2ncc(Cl)cc2-c2ccc(S(C)(=O)=O)cc2)cn1` [Etoricoxib], the IL-6-GFP fluorescence was found to be 0.451 ± 0.35 in experiment [1] and 0.873 ± 0.087 in experiment [2].
As for `CC(Cn1ccc(-c2ccc(C#N)c(Cl)c2)n1)NC(=O)c1cc(C(C)O)[nH]n1` (stereo not drawn) [Darolutamide (ODM-201)], the IL-6-GFP fluorescence was 1.04 ± 0.11 in experiment [1] and 1.03 ± 0.031 in experiment [2].
On to `Cc1ccc(C(C)C)cc2c(C)ccc1-2` [Guaiazulene], for which the IL-6-GFP fluorescence in experiment [1] came out at 0.871 ± 0.063; in experiment [2], 1.05 ± 0.07.
The like results for `C=C1CCC2C(C)(CO)C(O)CCC2(C)C1C/C=C1\C=COC1=O` (stereo not drawn) [Dehydroandrographolide] were, in that order, 0.61 ± 0.34 and 0.879 ± 0.017.
Take `Cc1ccc(=O)n(-c2ccccc2)c1` [Pirfenidone]: the IL-6-GFP fluorescence is 0.864 ± 0.082 in experiment [1] and 0.733 ± 0.27 in experiment [2].
As to `CCS(=O)(=O)O.COC(=O)c1ccc2c(c1)NC(=O)/C2=C(\Nc1ccc(N(C)C(=O)CN2CCN(C)CC2)cc1)c1ccccc1` [Nintedanib Ethanesulfonate Salt], the IL-6-GFP fluorescence in experiment [1] was 1.28 ± 0.29; in experiment [2], 1.19 ± 0.1.
For `COc1cc2ncnc(Nc3ccc(F)c(Cl)c3)c2cc1OCCCN1CCOCC1.Cl` [Gefitinib hydrochloride], the IL-6-GFP fluorescence in experiment [1] was found to be 0.766 ± 0.051; in experiment [2], 0.961 ± 0.018.
The like results for `COc1ccc2c(c1)nc(S(=O)Cc1ncc(C)c(OC)c1C)[n]2[Na]` (stereo not drawn) [Esomeprazole sodium] were, in that order, 0.799 ± 0.016 and 0.92 ± 0.21.
As for `Cc1nnc(C(=O)NC(C)(C)c2nc(C(=O)NCc3ccc(F)cc3)c([O-])c(=O)n2C)o1.[K+]` [Raltegravir potassium], the IL-6-GFP fluorescence is 1.07 ± 0.35 in experiment [1] and 0.842 ± 0.23 in experiment [2].
On to `Nc1ccc(F)cc1NC(=O)c1ccc(CNC(=O)/C=C/c2cccnc2)cc1` [Tucidinostat (Chidamide)], for which the IL-6-GFP fluorescence worked out at 0.973 ± 0.14 in experiment [1] and 0.94 ± 0.28 in experiment [2].
The matching figures for `CCOc1ccc(Cc2cc(C3OC(CO)C(O)C(O)C3O)ccc2Cl)cc1` (stereo not drawn) [Dapagliflozin]: 0.745 ± 0.31 and 1.28 ± 0.39.
For the molecule `CCc1ccc(Cc2ccc3c(c2)C2(OC3)OC(CO)C(O)C(O)C2O)cc1.O` (stereo not drawn) [Tofogliflozin(CSG 452)], the results for the IL-6-GFP fluorescence in experiment [1] and in experiment [2] were 0.942 ± 0.091 and 0.969 ± 0.03, respectively.
`CS(=O)(=O)O.Cc1ccc(NC(=O)c2ccc(CN3CCN(C)CC3)cc2)cc1Nc1nccc(-c2cccnc2)n1` [Imatinib Mesylate (STI571)]: the IL-6-GFP fluorescence in experiment [1] came out at 0.853 ± 0.17; in experiment [2] it was 0.82 ± 0.1.
Turning to `COc1ccc2cc(C(C)C(=O)[O-])ccc2c1.[Na+]` (stereo not drawn) [Naproxen Sodium], the IL-6-GFP fluorescence in experiment [1] was 0.913 ± 0.27; in experiment [2] it was 0.921 ± 0.23.
With `CCCC(=O)OC1(C(=O)CO)CCC2C3CCC4=CC(=O)CCC4(C)C3C(O)CC21C` (stereo not drawn) [Hydrocortisone butyrate], the IL-6-GFP fluorescence in experiment [1] was found to be 0.859 ± 0.057; in experiment [2] it was 0.8713 ± 0.0047.
`CC(C)=CCC/C(C)=C/CC/C(C)=C/CCC(=O)OC/C=C(\C)CCC=C(C)C` [Gefarnate]: the IL-6-GFP fluorescence in experiment [1] was 0.914 ± 0.05; in experiment [2] it was 0.834 ± 0.11.
With `Cl.c1ccc2c(c1)CCCC2C1=NCCN1` (stereo not drawn) [Tetrahydrozoline HCl], the values for the IL-6-GFP fluorescence in experiment [1] and in experiment [2] were 0.646 ± 0.3 and 0.898 ± 0.11, respectively.
`CN1C(C(=O)Nc2ccccn2)=C(O)c2sc(Cl)cc2S1(=O)=O` [Lornoxicam]: the IL-6-GFP fluorescence was found to be 0.909 ± 0.15 in experiment [1] and 0.625 ± 0.21 in experiment [2].
The matching figures for `CC(C)CC(NC(=O)CNC(=O)c1cc(Cl)ccc1Cl)B1OC(=O)CC(CC(=O)O)(C(=O)O)O1` (stereo not drawn) [Ixazomib Citrate (MLN9708)]: 0.871 ± 0.12 and 1.09 ± 0.077.
`CC1CC2C3CC(F)C4=CC(=O)C=CC4(C)C3(F)C(O)CC2(C)C1(O)C(=O)CO` (stereo not drawn) [Diflorasone]: the IL-6-GFP fluorescence in experiment [1] is 0.876 ± 0.083; in experiment [2], 0.964 ± 0.054.
